PubChem BioAssay AID1224826 – NIAID | 2016

Purpose: 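Regulators of Tlr4 signalling leading to Tnf-alpha expression in macrophages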 (primary screen)
System: RAW264.7 G9 macrophages from mouse bearing reporters for p65 (GFP) and the Tnf promoter (mCherry)
Reagents: siRNA pool against mouse genes, 100 nM
Time to read-out: 16 h of LPS stimulation, after 2 days of siRNA transfection
Conditions: bacterial lipopolysaccharide (Salmonella minnesota R595), 10 ng/ml
Read-out: 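Nuclear mCherry signal of the Tnf promoter reporter measured by imaging after background removal, scaled to each plate median and turned into robust z-scores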
Reading the numbers: Tnf reporter robust z-score: higher = stronger Tnf promoter reporter signal after LPS; Tnf reporter intensity: higher = stronger Tnf promoter reporter signal
Hit rule: 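a well counts as active at a score of -1.3 or below (Tlr4 knock-down control median) or above 3 (raised signal); controls and wells holding fewer than 50 cells are excluded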
Calls: active = Tnf reporter clearly lowered or raised; inactive = no clear change in Tnf reporter
The deposit covers about 17,000 reagents; shown is a random part of them. Of all reagents, about 1,110 (6.6%) got an active call. 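Active means lowered or raised reporter signal; replicate intensities are raw and not normalised per plate.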 Some reagents were tested in more than one well and are listed for each. No sequences are given here.

gene symbol	Tnf reporter robust z-score	fewer than 50 cells in well	Tnf reporter intensity, replicate 1	Tnf reporter intensity, replicate 2	call
Copg1 (coatomer protein complex, subunit gamma 1)	-1.06	enough cells in well	110	123	inactive
Scamp2	2.74	enough cells in well	208	284	inactive
Atp1a1 (ATPase, Na+/K+ transporting, alpha 1 polypeptide)	0.54	enough cells in well	243	155	inactive
Zic4 (zinc finger protein of the cerebellum 4)	-1.34	enough cells in well	52.8	67.3	active
A830054O04Rik (RIKEN cDNA A830054O04 gene)	-0.83	enough cells in well	125	109	inactive
Tars1 (threonyl-tRNA synthetase 1)		fewer than 50 cells per well; well left out of calls	14	153	inactive
Mcpt1 (mast cell protease 1)	0.32	enough cells in well	156	208	inactive
Tmem254 (transmembrane protein 254)	-0.33	enough cells in well	174	147	inactive
Ppp2r3c (protein phosphatase 2, regulatory subunit B'', gamma)	0.09	enough cells in well	192	76.2	inactive
Dcps (decapping enzyme, scavenger)	-0.21	enough cells in well	187	83.1	inactive
Nrf1 (nuclear respiratory factor 1)	-0.16	enough cells in well	300	116	inactive
Glb1l2 (galactosidase, beta 1-like 2)	0.9	enough cells in well	34.9	215	inactive
Kif18b (kinesin family member 18B)	0.79	enough cells in well	218	72.3	inactive
Scamp5	0.73	enough cells in well	184	134	inactive
Tex56 (testis expressed 56)	0.35	enough cells in well	211	152	inactive
Casp8 (caspase 8)	0.66	enough cells in well	153	232	inactive
Vmn1r13 (vomeronasal 1 receptor 13)		fewer than 50 cells per well; well left out of calls	127	125	inactive
Crisp2 (cysteine-rich secretory protein 2)	-0.1	enough cells in well	222	125	inactive
Wnt8b (WNT family member 8B)	-1.14	enough cells in well	136	147	inactive
Gprc5b (G protein-coupled receptor, family C, group 5, member B)	0.35	enough cells in well	237	337	inactive
Or12d17 (olfactory receptor family 12 subfamily D member 17)	0.9	enough cells in well	316	126	inactive
Arid3b (AT-rich interaction domain 3B)	0.47	enough cells in well	185	208	inactive
Map3k6 (mitogen-activated protein kinase kinase kinase 6)	-1.27	enough cells in well	155	91.3	inactive
Or52z13 (olfactory receptor family 52 subfamily Z member 13)	-0.84	enough cells in well	64	92.6	inactive
Hoxc6 (homeobox C6)	-0.75	enough cells in well	174	145	inactive
Ear3 (eosinophil-associated, ribonuclease A family, member 3)	-0.28	enough cells in well	167	105	inactive
Or5j1 (olfactory receptor family 5 subfamily J member 1)	1.35	enough cells in well	278	214	inactive
Pkd2l2 (polycystic kidney disease 2-like 2)	0.16	enough cells in well	285	179	inactive
Lat2 (linker for activation of T cells family, member 2)	1.32	enough cells in well	198	160	inactive
Rras (RAS oncogene related)	0.08	enough cells in well	365	179	inactive
Shbg (sex hormone binding globulin)	1.94	enough cells in well	473	347	inactive
Ocm (oncomodulin)	-1.04	enough cells in well	173	56.6	inactive
Fcer2a (Fc receptor, IgE, low affinity II, alpha polypeptide)	-0.26	enough cells in well	177	245	inactive
Strada (STE20-related kinase adaptor alpha)	0.71	enough cells in well	243	196	inactive
Strada (STE20-related kinase adaptor alpha)	-0.14	enough cells in well	237	64	inactive
Pbrm1 (polybromo 1)	1.73	enough cells in well	313	136	inactive
Mchr1 (melanin-concentrating hormone receptor 1)	-0.51	enough cells in well	171	258	inactive
Rps12 (ribosomal protein S12)		fewer than 50 cells per well; well left out of calls	105	97.9	inactive
Usp45 (ubiquitin specific petidase 45)	1.38	enough cells in well	300	53.5	inactive
Cct8 (chaperonin containing TCP1 subunit 8)	0.74	enough cells in well	263	303	inactive
Crlf3 (cytokine receptor-like factor 3)	0.63	enough cells in well	321	209	inactive
Clec4e (C-type lectin domain family 4, member e)	-0.07	enough cells in well	96.4	260	inactive
Slc25a32	0.44	enough cells in well	181	199	inactive
Tmem91 (transmembrane protein 91)	-0.99	enough cells in well	124	91	inactive
Or8a1 (olfactory receptor family 8 subfamily A member 1)	0.6	enough cells in well	195	160	inactive
Hs6st1 (heparan sulfate 6-O-sulfotransferase 1)	-1.28	enough cells in well	157	81.6	inactive
Chtf8 (CTF8, chromosome transmission fidelity factor 8)	0.61	enough cells in well	252	141	inactive
Evi2b (ecotropic viral integration site 2b)	-0.09	enough cells in well	223	223	inactive
Lrtm2 (leucine-rich repeats and transmembrane domains 2)	0.38	enough cells in well	268	178	inactive
Spats2 (spermatogenesis associated, serine-rich 2)	0.81	enough cells in well	147	109	inactive

Next part (6 carried over from the part before).
gene symbol	Tnf reporter robust z-score	fewer than 50 cells in well	Tnf reporter intensity, replicate 1	Tnf reporter intensity, replicate 2	call
Or8a1 (olfactory receptor family 8 subfamily A member 1)	0.6	enough cells in well	195	160	inactive
Hs6st1 (heparan sulfate 6-O-sulfotransferase 1)	-1.28	enough cells in well	157	81.6	inactive
Chtf8 (CTF8, chromosome transmission fidelity factor 8)	0.61	enough cells in well	252	141	inactive
Evi2b (ecotropic viral integration site 2b)	-0.09	enough cells in well	223	223	inactive
Lrtm2 (leucine-rich repeats and transmembrane domains 2)	0.38	enough cells in well	268	178	inactive
Spats2 (spermatogenesis associated, serine-rich 2)	0.81	enough cells in well	147	109	inactive
Col16a1 (collagen, type XVI, alpha 1)	1.13	enough cells in well	336	291	inactive
Ppp1cb (protein phosphatase 1 catalytic subunit beta)	0.43	enough cells in well	259	240	inactive
Pex19 (peroxisomal biogenesis factor 19)	-0.64	enough cells in well	208	127	inactive
Heyl (hairy/enhancer-of-split related with YRPW motif-like)	-0.27	enough cells in well	214	173	inactive
Mest (mesoderm specific transcript)	-0.66	enough cells in well	225	143	inactive
Senp7 (SUMO1/sentrin specific peptidase 7)	1.11	enough cells in well	269	79.6	inactive
Ceacam12 (CEA cell adhesion molecule 12)	0.45	enough cells in well	175	194	inactive
Ankrd13d (ankyrin repeat domain 13 family, member D)	0.53	enough cells in well	330	0	inactive
Sfxn4 (sideroflexin 4)		fewer than 50 cells per well; well left out of calls	66.4	135	inactive
Ccdc59 (coiled-coil domain containing 59)	0.64	enough cells in well	216	223	inactive
Slc26a1	0.34	enough cells in well	107	118	inactive
3830403N18Rik (RIKEN cDNA 3830403N18 gene)	-0.4	enough cells in well	151	65.6	inactive
Tmprss4 (transmembrane protease, serine 4)		fewer than 50 cells per well; well left out of calls	138	89	inactive
Ces2a (carboxylesterase 2A)	-0.5	enough cells in well	179	126	inactive
Ebna1bp2 (EBNA1 binding protein 2)	-0.55	enough cells in well	155	82.8	inactive
Sftpb (surfactant associated protein B)	-0.57	enough cells in well	196	198	inactive
Cyp2d10 (cytochrome P450, family 2, subfamily d, polypeptide 10)	-0.25	enough cells in well	175	155	inactive
Stom (stomatin)	-1.04	enough cells in well	187	71.7	inactive
Vmn1r59 (vomeronasal 1 receptor 59)	1.49	enough cells in well	172	139	inactive
Thbs3 (thrombospondin 3)	0.85	enough cells in well	311	165	inactive
Penk (preproenkephalin)	-0.14	enough cells in well	222	180	inactive
Tfpt (TCF3 (E2A) fusion partner)	0.54	enough cells in well	257	170	inactive
Snrpb (small nuclear ribonucleoprotein B)	1.41	enough cells in well	158	76.2	inactive
Gpr171 (G protein-coupled receptor 171)	-0.03	enough cells in well	213	291	inactive
Me3 (malic enzyme 3, NADP(+)-dependent, mitochondrial)	0.58	enough cells in well	196	205	inactive
